# According to the supplement of paper PMC12067093, “Discovery and optimisation of a covalent ligand for TRIM25 and its application to targeted protein ubiquitination” (Chemical Science, 2025):
# Protein sequences, listed by entry. Tags and fused reporters are not part of them. Lines headed by an entry give the natural chain unless they say otherwise; changes in a name come on top.
# UniProt Q9NU22: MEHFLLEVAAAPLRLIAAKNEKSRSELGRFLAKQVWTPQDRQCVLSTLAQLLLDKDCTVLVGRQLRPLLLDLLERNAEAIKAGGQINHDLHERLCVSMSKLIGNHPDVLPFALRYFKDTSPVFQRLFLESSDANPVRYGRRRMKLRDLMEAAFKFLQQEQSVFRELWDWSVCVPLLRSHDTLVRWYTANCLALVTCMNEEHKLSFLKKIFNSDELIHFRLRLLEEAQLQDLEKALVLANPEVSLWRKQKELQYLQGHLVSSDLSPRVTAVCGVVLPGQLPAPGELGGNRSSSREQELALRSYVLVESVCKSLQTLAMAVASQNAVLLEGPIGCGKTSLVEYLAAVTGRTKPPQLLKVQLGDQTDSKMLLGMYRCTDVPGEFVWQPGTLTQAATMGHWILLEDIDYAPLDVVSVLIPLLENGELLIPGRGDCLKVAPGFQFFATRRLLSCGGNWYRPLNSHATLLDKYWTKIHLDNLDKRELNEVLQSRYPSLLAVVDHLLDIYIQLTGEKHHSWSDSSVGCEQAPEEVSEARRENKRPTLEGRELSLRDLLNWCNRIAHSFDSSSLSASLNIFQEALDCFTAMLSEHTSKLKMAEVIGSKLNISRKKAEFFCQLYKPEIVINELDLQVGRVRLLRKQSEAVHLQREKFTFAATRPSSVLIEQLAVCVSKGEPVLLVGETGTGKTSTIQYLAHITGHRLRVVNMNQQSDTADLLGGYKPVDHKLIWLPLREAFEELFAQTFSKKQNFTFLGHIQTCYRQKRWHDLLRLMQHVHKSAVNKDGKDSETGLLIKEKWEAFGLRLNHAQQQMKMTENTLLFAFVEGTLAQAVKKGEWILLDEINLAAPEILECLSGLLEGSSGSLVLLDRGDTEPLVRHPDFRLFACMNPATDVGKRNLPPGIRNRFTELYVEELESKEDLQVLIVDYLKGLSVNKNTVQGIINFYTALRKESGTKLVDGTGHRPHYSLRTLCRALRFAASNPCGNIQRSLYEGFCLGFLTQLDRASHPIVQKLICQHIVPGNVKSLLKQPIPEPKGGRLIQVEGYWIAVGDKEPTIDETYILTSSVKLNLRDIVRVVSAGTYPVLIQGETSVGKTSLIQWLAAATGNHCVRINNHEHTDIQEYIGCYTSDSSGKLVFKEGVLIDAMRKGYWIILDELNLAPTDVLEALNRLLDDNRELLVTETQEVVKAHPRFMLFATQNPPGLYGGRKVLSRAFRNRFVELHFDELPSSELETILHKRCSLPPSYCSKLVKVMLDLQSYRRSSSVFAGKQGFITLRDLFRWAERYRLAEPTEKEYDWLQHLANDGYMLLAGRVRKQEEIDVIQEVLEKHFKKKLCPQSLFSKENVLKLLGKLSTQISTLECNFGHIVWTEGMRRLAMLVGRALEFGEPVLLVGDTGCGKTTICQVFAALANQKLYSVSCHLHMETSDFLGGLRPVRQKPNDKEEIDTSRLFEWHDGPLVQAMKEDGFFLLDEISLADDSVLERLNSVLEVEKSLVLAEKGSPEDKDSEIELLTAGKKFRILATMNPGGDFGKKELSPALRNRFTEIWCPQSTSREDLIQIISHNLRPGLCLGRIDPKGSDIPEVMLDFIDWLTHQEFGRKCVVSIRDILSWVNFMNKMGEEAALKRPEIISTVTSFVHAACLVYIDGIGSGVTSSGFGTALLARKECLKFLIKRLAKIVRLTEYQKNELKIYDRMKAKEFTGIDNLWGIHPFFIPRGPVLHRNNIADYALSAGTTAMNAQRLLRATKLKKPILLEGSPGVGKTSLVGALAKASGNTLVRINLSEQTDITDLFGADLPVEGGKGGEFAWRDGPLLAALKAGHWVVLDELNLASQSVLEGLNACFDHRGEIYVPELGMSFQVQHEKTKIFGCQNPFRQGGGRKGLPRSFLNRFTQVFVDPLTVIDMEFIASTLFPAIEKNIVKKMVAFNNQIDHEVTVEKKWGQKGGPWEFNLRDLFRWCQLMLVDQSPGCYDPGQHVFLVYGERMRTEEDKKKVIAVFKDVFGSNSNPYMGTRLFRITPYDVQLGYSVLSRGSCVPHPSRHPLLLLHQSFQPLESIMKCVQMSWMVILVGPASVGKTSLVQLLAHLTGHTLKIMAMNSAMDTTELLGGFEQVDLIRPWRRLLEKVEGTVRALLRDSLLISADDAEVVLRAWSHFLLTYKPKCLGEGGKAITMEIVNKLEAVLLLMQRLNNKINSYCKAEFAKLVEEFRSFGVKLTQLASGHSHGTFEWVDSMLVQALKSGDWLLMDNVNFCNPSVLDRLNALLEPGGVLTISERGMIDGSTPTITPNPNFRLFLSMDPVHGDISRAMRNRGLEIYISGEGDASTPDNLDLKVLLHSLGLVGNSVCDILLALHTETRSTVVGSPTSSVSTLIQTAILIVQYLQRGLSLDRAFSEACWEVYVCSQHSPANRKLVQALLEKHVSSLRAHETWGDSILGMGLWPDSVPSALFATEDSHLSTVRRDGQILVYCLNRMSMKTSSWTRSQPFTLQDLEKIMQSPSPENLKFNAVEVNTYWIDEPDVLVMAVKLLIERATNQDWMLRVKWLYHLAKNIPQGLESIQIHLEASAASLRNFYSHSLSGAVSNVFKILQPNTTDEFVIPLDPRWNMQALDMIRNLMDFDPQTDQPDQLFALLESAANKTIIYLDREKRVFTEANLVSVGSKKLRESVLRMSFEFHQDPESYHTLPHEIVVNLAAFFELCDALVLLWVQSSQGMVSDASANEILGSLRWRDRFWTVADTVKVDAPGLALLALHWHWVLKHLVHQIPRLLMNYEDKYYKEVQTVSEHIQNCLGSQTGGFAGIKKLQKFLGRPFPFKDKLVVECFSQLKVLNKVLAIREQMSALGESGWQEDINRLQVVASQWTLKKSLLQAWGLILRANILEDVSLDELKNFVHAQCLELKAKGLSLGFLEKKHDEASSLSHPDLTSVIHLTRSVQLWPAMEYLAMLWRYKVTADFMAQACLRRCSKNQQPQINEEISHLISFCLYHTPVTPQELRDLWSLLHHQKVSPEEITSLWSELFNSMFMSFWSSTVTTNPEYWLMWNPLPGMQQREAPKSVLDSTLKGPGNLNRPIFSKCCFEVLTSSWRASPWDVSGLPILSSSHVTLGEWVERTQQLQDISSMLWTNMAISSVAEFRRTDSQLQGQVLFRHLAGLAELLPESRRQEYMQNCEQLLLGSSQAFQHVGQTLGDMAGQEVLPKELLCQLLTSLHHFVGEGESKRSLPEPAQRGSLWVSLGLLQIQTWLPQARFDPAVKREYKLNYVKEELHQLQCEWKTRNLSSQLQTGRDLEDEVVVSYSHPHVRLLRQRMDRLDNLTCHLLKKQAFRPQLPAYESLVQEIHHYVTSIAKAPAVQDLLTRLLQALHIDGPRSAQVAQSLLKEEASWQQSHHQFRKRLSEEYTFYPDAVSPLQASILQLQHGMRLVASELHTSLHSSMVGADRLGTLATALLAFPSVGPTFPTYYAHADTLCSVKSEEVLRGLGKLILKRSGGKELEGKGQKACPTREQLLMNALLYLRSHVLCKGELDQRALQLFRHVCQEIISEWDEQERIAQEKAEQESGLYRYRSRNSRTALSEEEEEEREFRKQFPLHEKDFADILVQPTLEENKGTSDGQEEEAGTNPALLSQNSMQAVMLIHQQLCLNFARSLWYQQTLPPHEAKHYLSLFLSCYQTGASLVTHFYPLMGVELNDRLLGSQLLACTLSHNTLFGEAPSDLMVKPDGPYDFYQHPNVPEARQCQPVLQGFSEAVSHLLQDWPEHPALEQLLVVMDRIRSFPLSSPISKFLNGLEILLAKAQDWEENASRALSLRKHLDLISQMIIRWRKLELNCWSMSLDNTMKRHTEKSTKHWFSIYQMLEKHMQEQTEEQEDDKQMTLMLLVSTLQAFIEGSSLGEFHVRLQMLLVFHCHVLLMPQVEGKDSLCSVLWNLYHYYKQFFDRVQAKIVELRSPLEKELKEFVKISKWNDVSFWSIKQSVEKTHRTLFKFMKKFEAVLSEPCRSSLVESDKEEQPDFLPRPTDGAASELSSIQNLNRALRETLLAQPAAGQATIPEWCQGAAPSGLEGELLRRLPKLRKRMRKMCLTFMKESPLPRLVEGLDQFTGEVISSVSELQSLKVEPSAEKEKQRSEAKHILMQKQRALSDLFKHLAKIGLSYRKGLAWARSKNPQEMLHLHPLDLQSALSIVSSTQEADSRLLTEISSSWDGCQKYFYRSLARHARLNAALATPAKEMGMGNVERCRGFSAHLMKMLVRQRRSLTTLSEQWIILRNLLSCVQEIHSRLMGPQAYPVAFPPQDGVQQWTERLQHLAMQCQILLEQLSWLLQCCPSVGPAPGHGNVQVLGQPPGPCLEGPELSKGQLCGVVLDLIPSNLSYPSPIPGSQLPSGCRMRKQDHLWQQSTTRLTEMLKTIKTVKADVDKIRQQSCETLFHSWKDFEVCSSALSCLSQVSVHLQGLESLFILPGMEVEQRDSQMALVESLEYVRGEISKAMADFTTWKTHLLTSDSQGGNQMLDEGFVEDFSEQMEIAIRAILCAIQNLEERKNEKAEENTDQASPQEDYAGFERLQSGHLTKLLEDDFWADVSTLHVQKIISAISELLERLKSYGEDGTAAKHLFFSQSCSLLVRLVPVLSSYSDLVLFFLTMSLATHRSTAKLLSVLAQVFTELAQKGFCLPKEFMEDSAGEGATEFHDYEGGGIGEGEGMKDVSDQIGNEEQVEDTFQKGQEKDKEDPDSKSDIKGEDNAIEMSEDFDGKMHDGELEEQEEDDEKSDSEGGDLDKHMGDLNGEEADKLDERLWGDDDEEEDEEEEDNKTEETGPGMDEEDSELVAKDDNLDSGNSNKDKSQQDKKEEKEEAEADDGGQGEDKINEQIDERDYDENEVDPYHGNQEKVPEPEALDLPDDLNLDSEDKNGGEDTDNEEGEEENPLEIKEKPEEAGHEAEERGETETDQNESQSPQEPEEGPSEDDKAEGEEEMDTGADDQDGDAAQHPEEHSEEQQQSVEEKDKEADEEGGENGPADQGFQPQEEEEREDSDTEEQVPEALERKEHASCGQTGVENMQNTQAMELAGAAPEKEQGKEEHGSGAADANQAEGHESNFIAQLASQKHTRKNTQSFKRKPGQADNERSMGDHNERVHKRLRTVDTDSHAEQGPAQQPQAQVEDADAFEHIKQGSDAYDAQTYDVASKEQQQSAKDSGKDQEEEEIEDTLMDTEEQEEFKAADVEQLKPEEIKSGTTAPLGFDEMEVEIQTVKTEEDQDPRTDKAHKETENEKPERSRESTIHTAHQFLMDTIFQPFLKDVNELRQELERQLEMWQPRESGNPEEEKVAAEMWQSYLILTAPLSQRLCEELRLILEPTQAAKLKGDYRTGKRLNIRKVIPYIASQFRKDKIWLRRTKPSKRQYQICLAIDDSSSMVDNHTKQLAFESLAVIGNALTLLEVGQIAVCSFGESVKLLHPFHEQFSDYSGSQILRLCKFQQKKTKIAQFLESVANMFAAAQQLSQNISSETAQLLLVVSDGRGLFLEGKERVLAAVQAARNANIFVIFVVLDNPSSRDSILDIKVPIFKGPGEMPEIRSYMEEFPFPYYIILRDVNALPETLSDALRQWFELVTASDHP
# UniProt Q9Y316: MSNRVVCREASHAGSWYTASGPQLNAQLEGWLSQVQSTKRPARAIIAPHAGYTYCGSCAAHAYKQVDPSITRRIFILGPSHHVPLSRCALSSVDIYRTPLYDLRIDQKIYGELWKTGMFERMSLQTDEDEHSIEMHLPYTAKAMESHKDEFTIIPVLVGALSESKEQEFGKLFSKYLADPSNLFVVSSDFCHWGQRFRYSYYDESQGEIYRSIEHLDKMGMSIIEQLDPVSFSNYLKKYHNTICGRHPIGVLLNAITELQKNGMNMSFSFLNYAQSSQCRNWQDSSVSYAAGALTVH
# UniProt Q9HCE5: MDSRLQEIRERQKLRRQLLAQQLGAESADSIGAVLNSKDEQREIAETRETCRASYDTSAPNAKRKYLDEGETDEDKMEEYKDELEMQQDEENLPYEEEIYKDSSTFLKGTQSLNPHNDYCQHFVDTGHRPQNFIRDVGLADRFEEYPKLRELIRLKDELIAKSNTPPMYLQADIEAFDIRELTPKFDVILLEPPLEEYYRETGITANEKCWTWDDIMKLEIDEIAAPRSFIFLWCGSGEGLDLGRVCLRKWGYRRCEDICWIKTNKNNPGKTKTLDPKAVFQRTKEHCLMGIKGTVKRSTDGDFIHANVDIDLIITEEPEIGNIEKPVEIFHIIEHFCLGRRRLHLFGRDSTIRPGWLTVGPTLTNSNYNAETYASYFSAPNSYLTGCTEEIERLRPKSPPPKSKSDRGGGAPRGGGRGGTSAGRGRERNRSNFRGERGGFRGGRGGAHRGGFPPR
# This is one part of the list.
# Compound: CC1Cc2ccccc2N1C(=O)C1CCCN(C1)C(=O)CCl (mixture of isomers) [TRIM25 ligand 11 (diastereomer mixture)]
# Experiment: probe-labelled cysteine peptide fold change vs DMSO (competition) (log2 fold change); higher = less target engagement (more negative = stronger competition)
# Settings: THP-1, incubation time: 4 h
# 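Note: competitive chemoproteomic profiling in live THP-1 cells with an iodoacetamide desthiobiotin (IA-DTB) probe, comparing probe-labelled peptide intensities in compound-treated cells against DMSO-treated controls.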
Target,probe-labelled cysteine peptide fold change (10 µM),probe-labelled cysteine peptide fold change (50 µM)
MDN1_Q9NU22_4604_HLFFSQSCSLLVR (UniProt Q9NU22),0.142,0.423
METAP1_P53582_36+40_LGIQGSYFCSQECFK (UniProt P53582),-0.142,-0.0326
MEMO1_Q9Y316_58_AIIAPHAGYTYCGSCAAHAYK (UniProt Q9Y316),0.124,0.0348
MDH2_P40926_89_GYLGPEQLPDCLK (UniProt P40926),-0.00753,-0.0156
METAP1_P53582_22_LQCPTCIK (UniProt P53582),0.0363,0.151
MCM3_P25205_126_TLTSCFLSCVVCVEGIVTK (UniProt P25205),-0.199,-0.161
MDC1_Q14676_26_CNVEPVGR (UniProt Q14676),0.0176,-0.174
MED15_Q96RN5_660_TFVPAMTAIHGPPITAPVVCTR (UniProt Q96RN5),-0.0884,-0.0434
MCCC1_Q96RQ3_509_ESLCQAALGLILK (UniProt Q96RQ3),0.292,-0.195
MED24_O75448_816_LAVWCALSSYSSHK (UniProt O75448),-0.195,-0.162
METAP1_P53582_174_PGVTTEEIDHAVHLACIAR (UniProt P53582),0.064,0.133
MEMO1_Q9Y316_244_YHNTICGR (UniProt Q9Y316),0.221,0.136
MGAT2_Q10469_386_TCRPSTQSAQIESLLNNNK (UniProt Q10469),-0.0338,0.00591
MCMBP_Q9BTE3_3_PCGEDWLSHPLGIVQGFFAQNGVNPDWEK (UniProt Q9BTE3),-0.333,-0.445
MEFV_O15553_355_CQDSHER (UniProt O15553),0.0214,-0.096
METTL14_Q9HCE5_120_GTQSLNPHNDYCQHFVDTGHRPQNFIR (UniProt Q9HCE5),0.0663,0.095
MEIOB_Q8N635_424_ISVLSCK (UniProt Q8N635),0.0105,0.134
MFSD2A_Q8NA29_531_ALQALRDEASSSGCSETDSTELASIL (UniProt Q8NA29),-0.143,-0.539
METAP1_P53582_174_EVLDVAAGMIKPGVTTEEIDHAVHLACIAR (UniProt P53582),-0.148,0.0551
MCCC2_Q9HCC0_267_AATGEEVSAEDLGGADLHCR (UniProt Q9HCC0),-0.139,-0.276

# Record cards, as listed above. Order of values: probe-labelled cysteine peptide fold change (10 µM)	probe-labelled cysteine peptide fold change (50 µM)
# MDN1_Q9NU22_4604_HLFFSQSCSLLVR (UniProt Q9NU22) is listed as 0.142	0.423
# MEMO1_Q9Y316_58_AIIAPHAGYTYCGSCAAHAYK (UniProt Q9Y316) is listed as 0.124	0.0348
